Results deposited as PubChem BioAssay AID1508597 (Cure First, 2020)
Purpose: 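Knock-downs altering ovarian cancer cell survival with or without PARP inhibitor rucaparib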 (primary screen). System: human ovarian carcinoma lines grown from tumours: OCI-P5x (papillary serous) and OCI-C5x (clear cell). Knock-down reagent: siRNA pool against human genes, 1.25 pmol siRNA per well. Time to read-out: 72 h or 96 h, depending on the cell culture. Conditions: rucaparib 20 µM (about IC30) or vehicle, present until read-out. Rucaparib or vehicle: Rucaparib. Cell line: OCI-C5x (clear cell). Read-out: 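ATP luminescence measured at 72 or 96 h according to the culture, then normalised and expressed as percent viability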. Direction: viability, normalised: higher = more viable cells remaining. Call rule: 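a well counts as a hit if its normalised viability is under 80 percent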. Calls: active = viability under 80%; inactive = viability 80% or more.
Shown is an unselected part of the about 2,100 reagents, in one setting of the screen. 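Calls flag viability under 80% in either arm, not effects specific to rucaparib; the reference for percent is not stated.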 Some reagents were tested in more than one well and are listed for each. Reagent sequences are not shown. Not stated in the record: the 100% reference.

gene | technical replicate | viability, normalised (%) | outcome
TOP2A (GeneID 7153) | 1 | 57.3 | active
TOP2A (GeneID 7153) | 2 | 49 | active
TOP2A (GeneID 7153) | 3 | 45.5 | active
RNF20 (GeneID 56254) | 1 | 57 | active
RNF20 (GeneID 56254) | 2 | 40 | active
RNF20 (GeneID 56254) | 3 | 55.2 | active
IKBKB (GeneID 3551) | 1 | 37.7 | active
IKBKB (GeneID 3551) | 2 | 53.7 | active
IKBKB (GeneID 3551) | 3 | 42.1 | active
DAPK2 (GeneID 23604) | 1 | 62.9 | active
DAPK2 (GeneID 23604) | 2 | 53 | active
DAPK2 (GeneID 23604) | 3 | 81.9 | inactive
PHF20L1 (GeneID 51105) | 1 | 31.5 | active
PHF20L1 (GeneID 51105) | 2 | 32.9 | active
PHF20L1 (GeneID 51105) | 3 | 32.7 | active
AK9 (GeneID 221264) | 1 | 65.7 | active
AK9 (GeneID 221264) | 2 | 59.6 | active
AK9 (GeneID 221264) | 3 | 38.9 | active
SLK (GeneID 9748) | 1 | 46.4 | active
SLK (GeneID 9748) | 2 | 54 | active
SLK (GeneID 9748) | 3 | 43.4 | active
ELOA3P (GeneID 162699) | 1 | 55 | active
ELOA3P (GeneID 162699) | 2 | 53.4 | active
ELOA3P (GeneID 162699) | 3 | 59.6 | active
STK39 (GeneID 27347) | 1 | 59.9 | active
STK39 (GeneID 27347) | 2 | 58.8 | active
STK39 (GeneID 27347) | 3 | 54.2 | active

In a second layout: 5 of the entries above.
{"gene":"IKBKB (GeneID 3551)","technical replicate":"2","viability, normalised (%)":53.7,"outcome":"active"}
{"gene":"IKBKB (GeneID 3551)","technical replicate":"3","viability, normalised (%)":42.1,"outcome":"active"}
{"gene":"DAPK2 (GeneID 23604)","technical replicate":"1","viability, normalised (%)":62.9,"outcome":"active"}
{"gene":"DAPK2 (GeneID 23604)","technical replicate":"2","viability, normalised (%)":53,"outcome":"active"}
{"gene":"DAPK2 (GeneID 23604)","technical replicate":"3","viability, normalised (%)":81.9,"outcome":"inactive"}

The results go on:
gene | technical replicate | viability, normalised (%) | outcome
SOX2 (GeneID 6657) | 1 | 53.3 | active
SOX2 (GeneID 6657) | 1 | 51.6 | active
SOX2 (GeneID 6657) | 2 | 49 | active
SOX2 (GeneID 6657) | 2 | 58.5 | active
SOX2 (GeneID 6657) | 3 | 41.8 | active
SOX2 (GeneID 6657) | 3 | 46.4 | active
WHR1 (GeneID 8859) | 1 | 45.9 | active
WHR1 (GeneID 8859) | 2 | 47.1 | active
WHR1 (GeneID 8859) | 3 | 63 | active
FKBP1A (GeneID 2280) | 1 | 62.4 | active
FKBP1A (GeneID 2280) | 2 | 39.1 | active
FKBP1A (GeneID 2280) | 3 | 50.1 | active
FMN2 (GeneID 56776) | 1 | 43.2 | active
FMN2 (GeneID 56776) | 2 | 39.2 | active
FMN2 (GeneID 56776) | 3 | 42.3 | active
UCHL5 (GeneID 51377) | 1 | 76.5 | active
UCHL5 (GeneID 51377) | 2 | 74.3 | active
UCHL5 (GeneID 51377) | 3 | 42.1 | active
RBBP7 (GeneID 5931) | 1 | 57.5 | active
RBBP7 (GeneID 5931) | 2 | 41.6 | active
RBBP7 (GeneID 5931) | 3 | 37.9 | active
PIK3R1 (GeneID 5295) | 1 | 54.1 | active
PIK3R1 (GeneID 5295) | 2 | 45.2 | active
PIK3R1 (GeneID 5295) | 3 | 34.4 | active
ACTR8 (GeneID 93973) | 1 | 44.1 | active
ACTR8 (GeneID 93973) | 2 | 60.9 | active
ACTR8 (GeneID 93973) | 3 | 54.9 | active
SLC6A3 (GeneID 6531) | 1 | 47.2 | active
SLC6A3 (GeneID 6531) | 2 | 41.9 | active
SLC6A3 (GeneID 6531) | 3 | 34.1 | active
